Test results: PMC7971865
Results are given in words; binding and its absence hold for the method and conditions named. In cells and extracts the contact can be indirect. Some entries that bind do so weakly or less than the wild type.

Chains of the proteins cited; added tags and fusions are not shown.
UniProt P06240: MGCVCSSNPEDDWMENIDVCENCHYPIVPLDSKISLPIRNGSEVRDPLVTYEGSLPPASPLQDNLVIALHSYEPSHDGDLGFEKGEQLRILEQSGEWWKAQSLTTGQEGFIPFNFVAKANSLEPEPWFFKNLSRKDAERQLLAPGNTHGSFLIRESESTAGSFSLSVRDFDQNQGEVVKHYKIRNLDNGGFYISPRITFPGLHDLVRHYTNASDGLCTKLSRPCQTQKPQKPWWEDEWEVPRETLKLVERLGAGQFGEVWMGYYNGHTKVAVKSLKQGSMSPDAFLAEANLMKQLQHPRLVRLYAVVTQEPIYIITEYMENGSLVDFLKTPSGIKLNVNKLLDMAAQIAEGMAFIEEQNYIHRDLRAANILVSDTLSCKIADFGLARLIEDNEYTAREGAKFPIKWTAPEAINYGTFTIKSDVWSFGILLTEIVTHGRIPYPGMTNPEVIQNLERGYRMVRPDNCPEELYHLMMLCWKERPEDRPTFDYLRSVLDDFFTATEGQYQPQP
UniProt P41241: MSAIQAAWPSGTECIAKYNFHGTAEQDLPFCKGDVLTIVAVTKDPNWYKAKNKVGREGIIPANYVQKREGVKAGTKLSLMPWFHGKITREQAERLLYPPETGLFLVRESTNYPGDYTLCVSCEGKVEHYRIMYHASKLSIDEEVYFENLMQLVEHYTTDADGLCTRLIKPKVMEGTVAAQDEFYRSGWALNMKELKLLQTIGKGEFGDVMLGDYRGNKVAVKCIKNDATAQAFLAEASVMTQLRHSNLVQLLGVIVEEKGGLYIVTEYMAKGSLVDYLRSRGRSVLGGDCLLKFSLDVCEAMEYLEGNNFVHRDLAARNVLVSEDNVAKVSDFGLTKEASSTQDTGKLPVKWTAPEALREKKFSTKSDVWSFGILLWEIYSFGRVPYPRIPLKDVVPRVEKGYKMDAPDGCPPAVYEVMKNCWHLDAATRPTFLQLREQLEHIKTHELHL

Target: LCK (mouse (endogenous in splenic CD4+ T cells)) (UniProt P06240)
Test: co-IP; LCK antibody (4 ug, 12 h, 4°C) and protein A/G plus agarose beads; lysates of CD4+ T cells from Spry2+/+ and Spry2-/- mice, unstimulated or anti-CD3/CD28-stimulated (10 min); 25 mM Tris-HCl pH 7.4, 150 mM NaCl, 1.0% TritonX-100, 5 mM EDTA, 0.1% BSA; immunoblot of LCK, CSK and p-CSK

Substance | binding
CSK (from UniProt P41241 1-450) (enzyme) | binds
p-CSK (from UniProt P41241 1-450) (enzyme) | binds
